The source of these data is PMC7819943, “Rice protein-binding microarrays: a tool to detect cis-acting elements near promoter regions in rice”.

Protein sequences, listed by entry. Tags and fused reporters are not part of them.
UniProt Q0JBA9, entry or part of it: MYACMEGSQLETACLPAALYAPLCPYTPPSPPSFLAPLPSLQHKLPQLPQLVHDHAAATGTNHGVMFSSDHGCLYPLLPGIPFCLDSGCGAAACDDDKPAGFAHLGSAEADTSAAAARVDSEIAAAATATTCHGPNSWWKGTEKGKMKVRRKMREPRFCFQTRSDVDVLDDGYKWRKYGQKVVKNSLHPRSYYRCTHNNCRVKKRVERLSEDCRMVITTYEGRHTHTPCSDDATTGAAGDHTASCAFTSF

The other results are listed elsewhere or left out.

This assay concerns the target OsWRKY34 (Oryza sativa, UniProt Q0JBA9 1-250). Put plainly: protein-binding microarray (RPBM); PBS, 2% BSA, 51.3 ng/ul salmon testes DNA, 50 uM zinc acetate, 200 nM TF, 25 C, 1 h; high values mean tight binding. The conditions noted are these: protein: recombinant; tags: N-terminal polyhistidine and DsRed monomer fusion (pET32a); label: CyDye5-dUTP incorporated in the synthesized complementary strand; 3' TTTTT single-stranded linker to array surface; dsDNA, one strand shown. Put shortly:
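Using Ni–NTA, transcription factors fused N-terminally to polyhistidine and DsRed were purified after expression in E. coli BL21-CodonPlus. These were incubated at 200 nM with a blocked, double-stranded custom Agilent array for 1 h at 25 °C in a buffer containing 50 µM zinc acetate, and the array was washed. The binding signal is per-feature fluorescence intensity (arbitrary units) on an Axon 4000B scanner.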
In the case of “TCCATTCCAACTTCAAAGCGCTCACTCTCCAGCTGCAAGACGGAGTCACCTAGTGCAG”, the binding signal is 9260 fluorescence intensity (a.u.). For “GTGGGTGGTGGCGGCGGCGGCGGCGGCGAGGGTTTCTGGGCGGAGTCACCTAGTGCAG” the value was 10600 fluorescence intensity (a.u.); for “ACACTTATTTCTTCATTTTTCTTTTTTTTTTTTTTGCAAACGGAGTCACCTAGTGCAG”, 12400 fluorescence intensity (a.u.). The result for “AGGCGACGACGCGACTTTTCGCACCAGGTGCTTCCTCTCTCGGAGTCACCTAGTGCAG” reads 8050 fluorescence intensity (a.u.). For the sequence “CATAAATTTTTAACTTTTCCATCACATCGTTCCAATTTTGCGGAGTCACCTAGTGCAG”, the binding signal is 9140 fluorescence intensity (a.u.). For “TTTCACTCCGGCTTATTAGCATGTTGATCCTTCATCCTTACGGAGTCACCTAGTGCAG” the value was 8860 fluorescence intensity (a.u.); for “GTCCACATTTGTTAGAGAGGTCAATTCCCTTCTTTTTTTTCGGAGTCACCTAGTGCAG”, 9170 fluorescence intensity (a.u.); for “CTATTTTCCTGCTCTCTCGCTTTGCCACATCACTATCGATCGGAGTCACCTAGTGCAG”, 8780 fluorescence intensity (a.u.). As for “ACCATCGGGCCTACCTGCCCGCGCCGGCGCCGCCGATCAACGGAGTCACCTAGTGCAG”, the binding signal is 9160 fluorescence intensity (a.u.). For “TGATTTGCCACTGACTTTATCACGTTTTATAATGTGCCATCGGAGTCACCTAGTGCAG” the value was 8250 fluorescence intensity (a.u.). The result for “TTCTTTGCGGTCTCTCTGATTACTTGCAGTGGTGCTTGTTCGGAGTCACCTAGTGCAG” reads 9350 fluorescence intensity (a.u.); that for “TACAGTTTCTTCGTTTTGAGTTAGAGCGAGACTCCGGCGCCGGAGTCACCTAGTGCAG”, 8070 fluorescence intensity (a.u.).

“GGAGCTAGTCCAACCTACCGCAGTCACACCACCCCGCTATCGGAGTCACCTAGTGCAG”: the binding signal is 9270 fluorescence intensity (a.u.). As to “ATAAGTTGGGCTGGTTTTCTGATTGAGGGATGTGATTCGACGGAGTCACCTAGTGCAG”, the binding signal was 8180 fluorescence intensity (a.u.).

With “GTTTATAATTATAGCTTGTCTTATGCATACTCACTGTATGCGGAGTCACCTAGTGCAG”, the binding signal was 8720 fluorescence intensity (a.u.). For “ACCGCTTGTTTTTTAGAGACACATAAGTTTTTTCCAGCTACGGAGTCACCTAGTGCAG”, the binding signal was 8410 fluorescence intensity (a.u.). With “GTTATCTTCTGTGAGGTTTTTCTCTTTATCTGTTTTCTCCCGGAGTCACCTAGTGCAG”, the binding signal is 10500 fluorescence intensity (a.u.).

“CTGTCCCCACCTGTCACATGCCTCACGCAGCAGAGCTCAACGGAGTCACCTAGTGCAG”: the binding signal was 9310 fluorescence intensity (a.u.). The result for “AGTTTGCATTTTGCCCCTTTTCTATTGCAGTATTGCATATCGGAGTCACCTAGTGCAG” reads 8070 fluorescence intensity (a.u.); that for “TCGTTTTGTTTACTTTCGTGTTTATTAGGTCTGTCCACATCGGAGTCACCTAGTGCAG”, 11400 fluorescence intensity (a.u.); that for “GATCAGCCATGATATGGAGCAAGTCGAGAGCTTGTTGACTCGGAGTCACCTAGTGCAG”, 8120 fluorescence intensity (a.u.). Regarding “ATTCCCCATCCAACTGAGCTGCATCGCCGCCGTCGCCGCCCGGAGTCACCTAGTGCAG”, the binding signal was 11200 fluorescence intensity (a.u.). For “TCCTGTATATATGTCCTTTTTAATGTGTGTGTATAATTAACGGAGTCACCTAGTGCAG” the value was 8940 fluorescence intensity (a.u.). “AAGAAGGGGAAGGGAGTTTCTATGGTTCTTGCTGGTGCCGCGGAGTCACCTAGTGCAG”: the binding signal was 8750 fluorescence intensity (a.u.). With “GCCCGAACCTGTATACATCGCCCGTGTCTTGTGCTTTTTCCGGAGTCACCTAGTGCAG”, the binding signal was 11700 fluorescence intensity (a.u.).

Turning to “TTTAGTTGGTCTATCTTGAGCATTTCTTCTGAGTATTCAACGGAGTCACCTAGTGCAG”, the binding signal is 8700 fluorescence intensity (a.u.).

For the sequence “CGCCACCACTCGCCTCCGTCTCTAACGCCTCCGCTGCCGTCGGAGTCACCTAGTGCAG”, the binding signal is 9440 fluorescence intensity (a.u.).

On to “ACCGGGTGTTTTTTTATCGGATTTTCTGTCTAACACTGTACGGAGTCACCTAGTGCAG”, for which the binding signal was 10000 fluorescence intensity (a.u.). For “TAGGTGTAGATGGATAAAAGAGTTCGGGGTGGTTTAAAGTCGGAGTCACCTAGTGCAG” the value was 9010 fluorescence intensity (a.u.). The result for “TACTCCTACCCACCCACTCGTACGGCCGAACGTCTGGCACCGGAGTCACCTAGTGCAG” reads 8550 fluorescence intensity (a.u.); that for “CCACAAATATCCCCTAGTGCCTTTTGTTTGGCCGTGGTGTCGGAGTCACCTAGTGCAG”, 8860 fluorescence intensity (a.u.); that for “GGGTTCGTCTGCGGTTCGCTGCCCGTCTTCGTCCAGTTCCCGGAGTCACCTAGTGCAG”, 10800 fluorescence intensity (a.u.). For the sequence “TCTAGGCTCGTTATGTTTTGTATGTACTTGTATAAAAGACCGGAGTCACCTAGTGCAG”, the binding signal was 8070 fluorescence intensity (a.u.). Turning to “AATCAGCACGTCCTCAATCTATCGTCCACTCTCACAGTCTCGGAGTCACCTAGTGCAG”, the binding signal was 8120 fluorescence intensity (a.u.). Regarding “TTTTTATTCCACCGCTTTGTCGTTCTCGCAATCTCGCTGTCGGAGTCACCTAGTGCAG”, the binding signal is 17700 fluorescence intensity (a.u.). Turning to “GGCTGCACAGAATTTCGGTTTGAACGTTTTTTTTGGGGTTCGGAGTCACCTAGTGCAG”, the binding signal is 9770 fluorescence intensity (a.u.). The result for “GTTCTTGACCTCAAAAATTGTCGACAGCTCACTATCTACTCGGAGTCACCTAGTGCAG” reads 8520 fluorescence intensity (a.u.). For “CTTCTGTCACGTACGCCCGTCCCTCATATGGCCAATCGCGCGGAGTCACCTAGTGCAG” the value was 13400 fluorescence intensity (a.u.). “CTCTTCTTTTCTGCCTCCTCCATCATCTTCAACAATTGATCGGAGTCACCTAGTGCAG”: the binding signal is 8930 fluorescence intensity (a.u.). The result for “GTGTCTCAGTCAACATCAATTGATTGATCAATATAACAACCGGAGTCACCTAGTGCAG” reads 8230 fluorescence intensity (a.u.); that for “TCGTCACCCCTAACCCTAGGCTGAGTCATCCTCTTATCCGCGGAGTCACCTAGTGCAG”, 9020 fluorescence intensity (a.u.).

With “CCCACCCGCGATCCCTGATCTCCTCTCCGCTCCTCCGCGCCGGAGTCACCTAGTGCAG”, the binding signal was 9820 fluorescence intensity (a.u.).
